In PubChem BioAssay (NCATS):
Some of the results follow. Further columns of the screen follow, without active or inactive calls. Compounds called inactive in the main read-out are mostly missing here. Words in brackets tell the shape of the fitted curve; partial curves, single points and poor fits give uncertain potencies.

Assay: qHTS Assay for Inhibitors of PDE-IV (AID 607)
Settings: HEK293 ACTOne CNG channel cells, membrane potential fluorescence; measured here: parental cell counter-screen
Outline: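 ACTOne HEK293 cells carry a modified cAMP-gated CNG channel and express endogenous PDE4; plated 1000 cells/well, compounds up to 22.9 uM final. Membrane-potential dye fluorescence (ex 535/em 590) was read; parental cells received 10 uM forskolin + 100 uM RO 20-1724.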

Compound	AC50
CCCC[C@@H]1C[C@H]1C(NC(=O)c1ccco1)c1ccc(C(=O)OC)cc1 (stereo partly specified)	7.94 µM [rising, partial curve]
COc1ccc(CNc2ccnc(-c3ccccc3CN(C)C)n2)c(OC)c1	15.8 µM [rising, single point]
CC(CCC(=O)O)(c1cc(Br)c(O)c(Br)c1)c1cc(Br)c(O)c(Br)c1	3.98 µM [rising, single point]
CCC/C=C(\CCC)C(NC(=O)c1ccco1)c1ccc(C(=O)OC)cc1 (stereo unspecified)	10 µM [rising, single point]
Cc1cccc(CNc2ncnc3ccc(-c4ccc5c(c4)OCO5)cc23)c1	10 µM [rising, single point]
CN(C)Cc1ccccc1-c1cc(NCc2ccccc2)ncn1	20 µM [rising, single point]
CCC/C=C(\CCC)C(NC(=O)c1cccs1)c1ccc(C(=O)OC)cc1 (stereo unspecified)	10 µM [rising, single point]
O=C(c1cnccn1)N1CCC2(CCN(Cc3nccs3)CC2)CC1	3.98 µM [rising, single point]
Cc1cc(C(=O)N[C@@H](c2ccccc2)[C@]2(C)C[C@H]2[C@@H](C)C(=O)Nc2ccc3ccccc3c2)no1	6.31 µM [rising, partial curve, poor fit]
Cn1cccc1C(=O)N1CCC2(CCN(Cc3nccs3)CC2)CC1	3.98 µM [rising, single point]
Cn1cccc1C(=O)N1CCC[C@@]2(CCN(c3ccccn3)C2)C1	3.98 µM [rising, single point]

Three structures out of the list, sorted by length of the SMILES, low to high.
Compound	AC50
CN(C)Cc1ccccc1-c1cc(NCc2ccccc2)ncn1	20 µM [rising, single point]
COc1ccc(CNc2ccnc(-c3ccccc3CN(C)C)n2)c(OC)c1	15.8 µM [rising, single point]
CCC/C=C(\CCC)C(NC(=O)c1ccco1)c1ccc(C(=O)OC)cc1 (stereo unspecified)	10 µM [rising, single point]
